{"source": "paper PMC10275759", "binders": {"B1": {"name": "Reticulocalbin 2 (RCN2), in CAFs used for LC-MS/MS (protein, UniProt Q14257 23-317)", "chain": "GKAEELHYPLGERRSDYDREALLGVQEDVDEYVKLGHEEQQKRLQAIIKKIDLDSDGFLTESELSSWIQMSFKHYAMQEAKQQFVEYDKNSDDTVTWDEYNIQMYDRVIDFDENTALDDAEEESFRKLHLKDKKRFEKANQDSGPGLSLEEFIAFEHPEEVDYMTEFVIQEALEEHDKNGDGFVSLEEFLGDYRWDPTANEDPEWILVEKDRFVNDYDKDNDGRLDPQELLPWVVPNNQGIAQEEALHLIDEMDLNGDKKLSEEEILENPDLFLTSEATDYGRQLHDDYFYHDEL"}}, "target": "T1, microfibril associated protein 5 (MFAP5), in CAFs used for LC-MS/MS (not stated (human CAF3 or mouse ImdyCAF cells)) (UniProt Q13361)", "T1 sequence": "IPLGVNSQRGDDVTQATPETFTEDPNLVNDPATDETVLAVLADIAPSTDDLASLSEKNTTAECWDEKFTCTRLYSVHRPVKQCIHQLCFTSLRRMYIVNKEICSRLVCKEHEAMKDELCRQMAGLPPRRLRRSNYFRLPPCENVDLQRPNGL", "assay": "affinity purification with mass spectrometry; proteins binding with MFAP5 in CAFs identified by LC-MS/MS; no further conditions told", "note": "Results are given in words; binding and its absence hold for the method and conditions named. Binding seen in cells or lysates may run through a third protein. Here binding means that the protein was enriched with, or labelled near, the bait; the list need not be complete.", "data": [{"binder": "B1", "values": [{"measurement": "binding", "value": "binds"}]}]}
